Measurements taken from the supplement of paper PMC11732987, “Enantioselective OTUD7B fragment discovery through chemoproteomics screening and high-throughput optimisation” (Communications Chemistry, 2025).
The list shows a part of the results. The data scatter; read single values as rough.

Protein sequences, listed by entry. Tags and fused reporters are not part of them. Lines headed by an entry give the natural chain unless they say otherwise; changes in a name come on top. Residues count along the entry.
UniProt Q99996, whole entry, looked up: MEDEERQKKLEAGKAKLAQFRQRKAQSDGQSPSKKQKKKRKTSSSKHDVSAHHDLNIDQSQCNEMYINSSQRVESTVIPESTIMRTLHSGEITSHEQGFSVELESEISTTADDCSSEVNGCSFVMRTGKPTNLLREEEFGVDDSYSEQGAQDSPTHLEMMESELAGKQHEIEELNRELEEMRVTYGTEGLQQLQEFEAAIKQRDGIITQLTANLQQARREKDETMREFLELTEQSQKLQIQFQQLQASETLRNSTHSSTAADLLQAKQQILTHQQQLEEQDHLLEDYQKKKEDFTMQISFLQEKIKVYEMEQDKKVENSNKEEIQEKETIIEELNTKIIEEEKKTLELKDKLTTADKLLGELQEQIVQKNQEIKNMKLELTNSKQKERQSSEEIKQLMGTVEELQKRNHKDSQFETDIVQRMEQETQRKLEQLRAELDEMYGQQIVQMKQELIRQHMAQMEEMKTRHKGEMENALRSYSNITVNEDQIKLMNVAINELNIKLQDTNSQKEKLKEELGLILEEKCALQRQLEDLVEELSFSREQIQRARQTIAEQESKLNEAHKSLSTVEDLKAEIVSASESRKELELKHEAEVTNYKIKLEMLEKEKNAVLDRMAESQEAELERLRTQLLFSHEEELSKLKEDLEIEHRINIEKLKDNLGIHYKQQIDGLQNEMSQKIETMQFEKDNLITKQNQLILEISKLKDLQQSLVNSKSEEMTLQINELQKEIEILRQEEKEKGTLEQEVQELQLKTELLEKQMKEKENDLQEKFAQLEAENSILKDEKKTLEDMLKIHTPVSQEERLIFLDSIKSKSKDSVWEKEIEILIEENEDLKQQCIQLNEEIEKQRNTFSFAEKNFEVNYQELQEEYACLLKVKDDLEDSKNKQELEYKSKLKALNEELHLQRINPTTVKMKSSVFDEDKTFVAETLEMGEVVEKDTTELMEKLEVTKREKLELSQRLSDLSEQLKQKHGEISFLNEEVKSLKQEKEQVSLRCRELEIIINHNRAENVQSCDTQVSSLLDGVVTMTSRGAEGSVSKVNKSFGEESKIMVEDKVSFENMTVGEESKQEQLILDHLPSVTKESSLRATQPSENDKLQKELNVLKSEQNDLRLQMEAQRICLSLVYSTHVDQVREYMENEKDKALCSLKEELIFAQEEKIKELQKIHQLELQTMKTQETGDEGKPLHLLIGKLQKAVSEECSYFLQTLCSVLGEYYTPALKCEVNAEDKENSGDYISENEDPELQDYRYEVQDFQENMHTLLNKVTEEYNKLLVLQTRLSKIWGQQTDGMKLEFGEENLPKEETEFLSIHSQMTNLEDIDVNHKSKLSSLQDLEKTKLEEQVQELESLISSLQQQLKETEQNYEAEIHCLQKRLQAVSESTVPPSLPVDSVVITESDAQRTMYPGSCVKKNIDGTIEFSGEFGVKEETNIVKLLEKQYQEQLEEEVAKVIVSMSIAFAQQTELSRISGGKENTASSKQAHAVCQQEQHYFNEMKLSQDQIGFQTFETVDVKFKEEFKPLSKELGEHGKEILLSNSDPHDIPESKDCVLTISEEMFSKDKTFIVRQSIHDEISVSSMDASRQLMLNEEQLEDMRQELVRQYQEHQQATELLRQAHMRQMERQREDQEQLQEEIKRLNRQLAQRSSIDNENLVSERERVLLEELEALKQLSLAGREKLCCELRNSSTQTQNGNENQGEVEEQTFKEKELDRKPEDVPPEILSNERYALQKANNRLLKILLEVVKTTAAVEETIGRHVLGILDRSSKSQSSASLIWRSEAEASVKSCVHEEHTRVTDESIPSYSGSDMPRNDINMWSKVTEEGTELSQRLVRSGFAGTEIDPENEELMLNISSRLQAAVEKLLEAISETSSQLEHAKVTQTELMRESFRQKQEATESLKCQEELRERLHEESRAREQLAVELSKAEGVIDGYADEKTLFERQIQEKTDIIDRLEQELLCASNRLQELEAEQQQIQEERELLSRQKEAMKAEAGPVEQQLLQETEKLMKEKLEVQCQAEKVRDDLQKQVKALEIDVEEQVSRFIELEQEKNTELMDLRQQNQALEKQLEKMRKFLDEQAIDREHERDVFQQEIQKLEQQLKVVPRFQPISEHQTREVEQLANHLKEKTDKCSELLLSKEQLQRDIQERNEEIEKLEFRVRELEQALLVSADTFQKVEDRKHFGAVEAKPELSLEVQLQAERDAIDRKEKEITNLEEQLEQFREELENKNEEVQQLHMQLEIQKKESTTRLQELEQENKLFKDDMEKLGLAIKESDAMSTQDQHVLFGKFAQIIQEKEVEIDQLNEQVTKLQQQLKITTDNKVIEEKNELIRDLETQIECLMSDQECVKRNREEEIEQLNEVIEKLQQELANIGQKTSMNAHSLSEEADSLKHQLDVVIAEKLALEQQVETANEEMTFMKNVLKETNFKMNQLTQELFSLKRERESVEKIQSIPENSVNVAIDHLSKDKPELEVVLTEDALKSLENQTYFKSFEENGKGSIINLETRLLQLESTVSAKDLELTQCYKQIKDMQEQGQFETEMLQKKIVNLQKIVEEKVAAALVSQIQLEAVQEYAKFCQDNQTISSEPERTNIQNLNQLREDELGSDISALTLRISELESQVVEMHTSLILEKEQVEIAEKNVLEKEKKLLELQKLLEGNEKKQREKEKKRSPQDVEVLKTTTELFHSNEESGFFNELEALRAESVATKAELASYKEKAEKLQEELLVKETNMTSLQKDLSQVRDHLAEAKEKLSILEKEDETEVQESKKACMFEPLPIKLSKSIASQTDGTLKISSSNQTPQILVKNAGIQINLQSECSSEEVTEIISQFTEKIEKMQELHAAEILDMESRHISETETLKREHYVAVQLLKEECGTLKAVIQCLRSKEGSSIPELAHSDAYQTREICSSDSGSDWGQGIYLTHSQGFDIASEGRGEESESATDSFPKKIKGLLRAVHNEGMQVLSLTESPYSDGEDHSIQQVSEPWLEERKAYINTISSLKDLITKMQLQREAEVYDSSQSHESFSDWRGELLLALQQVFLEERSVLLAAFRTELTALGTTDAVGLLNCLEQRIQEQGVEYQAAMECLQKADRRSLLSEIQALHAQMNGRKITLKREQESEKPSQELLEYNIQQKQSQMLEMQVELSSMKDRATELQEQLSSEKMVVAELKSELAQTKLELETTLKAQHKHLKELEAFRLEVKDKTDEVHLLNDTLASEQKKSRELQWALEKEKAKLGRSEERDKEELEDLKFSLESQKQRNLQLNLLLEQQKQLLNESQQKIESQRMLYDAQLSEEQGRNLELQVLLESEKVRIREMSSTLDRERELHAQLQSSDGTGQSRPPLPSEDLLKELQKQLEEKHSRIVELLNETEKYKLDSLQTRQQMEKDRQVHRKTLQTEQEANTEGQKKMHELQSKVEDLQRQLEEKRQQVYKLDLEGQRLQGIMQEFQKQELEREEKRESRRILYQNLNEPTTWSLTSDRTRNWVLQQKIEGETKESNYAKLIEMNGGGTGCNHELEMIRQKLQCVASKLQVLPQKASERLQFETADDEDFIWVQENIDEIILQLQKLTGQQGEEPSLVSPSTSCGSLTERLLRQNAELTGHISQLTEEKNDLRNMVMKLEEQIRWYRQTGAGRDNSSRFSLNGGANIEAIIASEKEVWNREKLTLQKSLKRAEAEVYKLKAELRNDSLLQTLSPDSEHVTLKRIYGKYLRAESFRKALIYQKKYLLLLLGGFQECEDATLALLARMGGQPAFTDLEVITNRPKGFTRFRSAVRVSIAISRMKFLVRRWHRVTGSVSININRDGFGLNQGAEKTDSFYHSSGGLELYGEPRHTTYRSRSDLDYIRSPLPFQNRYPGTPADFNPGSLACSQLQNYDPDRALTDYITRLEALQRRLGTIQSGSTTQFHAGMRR
UniProt O60503: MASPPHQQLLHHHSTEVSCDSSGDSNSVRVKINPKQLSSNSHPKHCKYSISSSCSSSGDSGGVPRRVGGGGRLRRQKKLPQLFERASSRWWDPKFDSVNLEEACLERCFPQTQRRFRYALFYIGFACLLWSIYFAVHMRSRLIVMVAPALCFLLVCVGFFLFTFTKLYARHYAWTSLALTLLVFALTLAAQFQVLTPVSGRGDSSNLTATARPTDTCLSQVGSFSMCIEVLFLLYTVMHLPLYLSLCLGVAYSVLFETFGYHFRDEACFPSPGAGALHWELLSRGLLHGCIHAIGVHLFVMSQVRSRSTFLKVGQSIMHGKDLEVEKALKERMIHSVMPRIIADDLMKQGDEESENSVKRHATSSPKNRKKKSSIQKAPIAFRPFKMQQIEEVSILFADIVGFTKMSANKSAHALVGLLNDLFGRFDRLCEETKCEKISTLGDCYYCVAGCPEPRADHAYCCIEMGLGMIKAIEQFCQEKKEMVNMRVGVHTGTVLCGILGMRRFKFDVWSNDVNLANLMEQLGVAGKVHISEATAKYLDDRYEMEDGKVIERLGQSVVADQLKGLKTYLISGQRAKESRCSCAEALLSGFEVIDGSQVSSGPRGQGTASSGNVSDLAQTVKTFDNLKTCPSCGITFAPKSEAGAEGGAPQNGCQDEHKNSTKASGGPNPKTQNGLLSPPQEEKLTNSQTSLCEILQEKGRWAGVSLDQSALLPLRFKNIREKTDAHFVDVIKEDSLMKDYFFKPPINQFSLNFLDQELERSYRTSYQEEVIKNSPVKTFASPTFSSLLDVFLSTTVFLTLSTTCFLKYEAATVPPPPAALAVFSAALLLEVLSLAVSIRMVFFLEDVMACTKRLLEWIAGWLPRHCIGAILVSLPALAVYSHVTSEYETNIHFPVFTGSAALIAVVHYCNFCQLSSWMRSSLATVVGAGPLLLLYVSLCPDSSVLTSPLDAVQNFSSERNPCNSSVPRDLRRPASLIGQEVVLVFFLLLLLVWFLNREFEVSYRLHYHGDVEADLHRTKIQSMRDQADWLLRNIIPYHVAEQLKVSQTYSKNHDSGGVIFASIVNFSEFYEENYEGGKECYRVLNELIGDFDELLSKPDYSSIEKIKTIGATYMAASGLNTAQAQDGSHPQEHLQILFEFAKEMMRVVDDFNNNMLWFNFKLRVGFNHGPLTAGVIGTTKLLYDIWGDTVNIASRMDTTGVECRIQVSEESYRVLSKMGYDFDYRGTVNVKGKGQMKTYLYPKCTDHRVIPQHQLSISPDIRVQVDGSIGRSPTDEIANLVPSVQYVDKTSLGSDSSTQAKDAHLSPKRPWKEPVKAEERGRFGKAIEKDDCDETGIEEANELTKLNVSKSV
UniProt Q6P6C2: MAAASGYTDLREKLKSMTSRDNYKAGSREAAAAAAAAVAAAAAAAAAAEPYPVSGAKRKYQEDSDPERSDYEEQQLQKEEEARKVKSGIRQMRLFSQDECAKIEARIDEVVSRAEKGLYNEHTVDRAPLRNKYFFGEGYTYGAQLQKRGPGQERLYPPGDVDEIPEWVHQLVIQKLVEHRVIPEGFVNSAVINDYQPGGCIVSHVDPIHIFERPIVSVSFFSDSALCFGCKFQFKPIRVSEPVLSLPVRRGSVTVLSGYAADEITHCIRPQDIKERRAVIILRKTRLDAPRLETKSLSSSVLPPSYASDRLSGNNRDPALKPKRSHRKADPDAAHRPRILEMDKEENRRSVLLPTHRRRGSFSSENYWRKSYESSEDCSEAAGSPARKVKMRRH
UniProt Q8N556, 675-702: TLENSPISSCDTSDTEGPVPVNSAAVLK
UniProt O96019, whole entry, looked up: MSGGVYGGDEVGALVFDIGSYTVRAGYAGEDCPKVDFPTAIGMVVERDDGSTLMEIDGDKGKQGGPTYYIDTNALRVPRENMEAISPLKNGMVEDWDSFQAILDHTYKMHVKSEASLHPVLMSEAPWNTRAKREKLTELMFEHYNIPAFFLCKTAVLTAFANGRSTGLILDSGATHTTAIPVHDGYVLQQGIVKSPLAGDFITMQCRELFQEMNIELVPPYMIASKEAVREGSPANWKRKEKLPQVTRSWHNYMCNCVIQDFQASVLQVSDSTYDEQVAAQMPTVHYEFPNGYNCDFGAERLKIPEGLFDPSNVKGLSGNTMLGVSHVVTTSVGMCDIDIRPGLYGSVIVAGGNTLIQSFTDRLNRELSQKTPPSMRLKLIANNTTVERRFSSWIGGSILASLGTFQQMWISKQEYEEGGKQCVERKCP
UniProt Q09666, 1880-1904: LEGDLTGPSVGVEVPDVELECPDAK
UniProt P24588, whole entry, looked up: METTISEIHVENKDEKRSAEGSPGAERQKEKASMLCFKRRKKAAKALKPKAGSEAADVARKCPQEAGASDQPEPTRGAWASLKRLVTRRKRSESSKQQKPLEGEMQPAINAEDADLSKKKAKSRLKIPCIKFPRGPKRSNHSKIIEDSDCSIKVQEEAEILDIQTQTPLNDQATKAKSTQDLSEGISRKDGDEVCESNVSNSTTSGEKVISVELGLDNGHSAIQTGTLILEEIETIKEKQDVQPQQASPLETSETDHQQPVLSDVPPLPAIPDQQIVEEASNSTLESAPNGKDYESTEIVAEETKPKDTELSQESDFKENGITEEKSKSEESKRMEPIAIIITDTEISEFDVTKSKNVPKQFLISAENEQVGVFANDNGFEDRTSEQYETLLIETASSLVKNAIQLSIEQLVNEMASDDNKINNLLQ

Key:
[1] = compound: ClCC(=O)N[C@@H]1CCCc2ccccc12; test: log2 mean competition ratio of IA-DTB cysteine labelling (DMSO/compound) (log2 ratio); higher = stronger cysteine engagement by compound; conditions: treatment time: 4 h, cell line lysate: HEK293T
Description: (§1)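 IA-DTB competitive cysteine chemoproteomics in HEK293T RIPA lysate. Lysates were treated with compound 29 or 30 at 50 or 200 µM for 4 h, then IA-DTB (500 µM, 1 h), trypsin-digested, NeutrAvidin-enriched and analysed by diaPASEF. Competition ratio = intensity DMSO / intensity compound (n=4 treated, n=64 DMSO); binding: mean log2 CR ≥ 1 and p ≤ 0.05 plus QC filters. Target is the cysteine site.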

[2] = compound: ClCC(=O)N[C@H]1CCCc2ccccc12; test: as above; conditions: treatment time: 4 h, cell line lysate: HEK293T
Description: as §1

| Target | log2 mean competition ratio ([1]; 50 µM) | log2 mean competition ratio ([1]; 200 µM) | log2 mean competition ratio ([2]; 50 µM) | log2 mean competition ratio ([2]; 200 µM) |
| --- | --- | --- | --- | --- |
| AKAP9 C3081 (UniProt Q99996) | 0.199 | -0.352 | 0.427 | -0.152 |
| ANKFY1 C749 (UniProt Q9P2R3) | -0.212 | 0.0968 | -0.034 | 0.0817 |
| AGO2 C717 | -0.299 | 0.334 | -0.19 | 0.1 |
| ALDH6A1 C368 (UniProt Q02252) | 0.00493 | -0.0182 | -0.343 | 0.102 |
| ADRM1 C121 (UniProt Q16186) | -0.308 | 0.255 | -0.325 | 0.335 |
| ACTR2 C11 (UniProt P61160) | 0.184 | 0.205 | -0.0186 | 0.282 |
| ADD1 C525 (UniProt P35611) | 0.372 | 0.38 | 0.472 | 0.236 |
| ADCY9 C654 (UniProt O60503) | -0.439 | -0.00984 | -0.231 | -0.237 |
| AHDC1 C791 (UniProt Q5TGY3) | -0.0351 | 0.0602 | -0.0381 | -0.0152 |
| AGK C72 (UniProt Q53H12) | 0.106 | -0.0386 | 0.308 | 0.0538 |
| ACSL6 C625 (UniProt Q9UKU0) | -0.0653 | -0.214 | -0.667 | -0.099 |
| ADCY3 C463 (UniProt O60266) | -0.078 | 0.564 | -0.428 | 0.0267 |
| ACO2 C592 (UniProt Q99798) | 0.279 | -0.0165 | -0.279 | -0.161 |
| ALKBH5 C378 (UniProt Q6P6C2) | 0.184 | -0.207 | 0.0585 | -0.294 |
| AMOT C741 (UniProt Q4VCS5) | -0.154 | 0.244 | -0.0786 | 0.264 |
| AKAP9 C2571 (UniProt Q99996) | 0.188 | 0.354 | 0.582 | 0.178 |
| AKAP11 C1820 (UniProt Q9UKA4) | -0.422 | 0.576 | -0.382 | 0.158 |
| AFAP1 C713 (UniProt Q8N556) | -0.0379 | 0.102 | 0.202 | 0.243 |
| ADAT1 C48 (UniProt Q9BUB4) | -0.232 | -0.261 | -0.279 | -0.268 |
| ADSL C483 (UniProt P30566) | -0.00304 | 0.373 | -0.13 | 0.521 |
| ACTL6A C32 (UniProt O96019) | 0.0541 | -0.213 | -0.352 | -0.308 |
| AHNAK C1900(C1967) (UniProt Q09666) | -0.307 | 0.0257 | -0.02 | 0.00134 |
| AKAP9 C2010 (UniProt Q99996) | -0.181 | 0.000148 | -0.199 | -0.125 |

Single values from the results shown:
ADRM1 C121 (UniProt Q16186) – log2 mean competition ratio ([2]; 50 µM): -0.325
AFAP1 C713 (UniProt Q8N556) – log2 mean competition ratio ([2]; 50 µM): 0.202
AMOT C741 (UniProt Q4VCS5) – log2 mean competition ratio ([2]; 50 µM): -0.0786

Additional entries follow:

| Target | log2 mean competition ratio ([1]; 50 µM) | log2 mean competition ratio ([1]; 200 µM) | log2 mean competition ratio ([2]; 50 µM) | log2 mean competition ratio ([2]; 200 µM) |
| --- | --- | --- | --- | --- |
| AFDN C1684 | 0.00587 | -0.228 | -0.266 | -0.258 |
| ACLY C229 (UniProt P53396) | -0.28 | -0.0432 | -0.0414 | 0.141 |
| ALDH1L2 C389 (UniProt Q3SY69) | 0.399 | -0.0413 | 0.0052 | -0.348 |
| AGPAT5 C217 (UniProt Q9NUQ2) | 0.37 | 0.296 | 0.366 | 0.0669 |
| ALX1 C99 | -0.0593 | 0.211 | -0.283 | 0.137 |
| AFAP1 C395 (UniProt Q8N556) | -0.191 | -0.0909 | -0.126 | -0.143 |
| ACTN1 C370 | 0.282 | -0.0808 | 0.315 | -0.273 |
| ALG2 C70 (UniProt Q9H553) | 0.191 | 0.216 | -0.204 | 0.382 |
| AKAP5 C150 (UniProt P24588) | -0.0534 | -0.0749 | -0.0456 | 0.1 |
| ALKBH2 C165 (UniProt Q6NS38) | 0.194 | 0.655 | -0.0831 | -0.114 |
| AHCYL2 C187 (UniProt Q96HN2) | -0.249 | -0.00824 | -0.217 | 0.0057 |
| ANK2 C3859 (UniProt Q01484) | 0.0969 | 0.531 | -0.725 | 0.26 |
| ANKHD1 C1716 | -0.149 | -0.0778 | -0.355 | -0.278 |
| AFAP1 C684 (UniProt Q8N556) | 0.105 | -0.443 | 0.35 | -0.335 |
| ALG13 C86 (UniProt Q9NP73) | 0.123 | -0.112 | 0.165 | -0.157 |
| AKAP5 C36 (UniProt P24588) |  | 0.35 | 0.752 | 0.537 |
| ALDH4A1 C315 (UniProt P30038) | -0.152 | -0.0218 | -0.127 | 0.171 |
| AGO2 C188 | 0.0187 | -0.0801 | 0.242 | 0.0772 |
| ALDH2 C386 (UniProt P05091) | 0.35 | 0.423 | 0.247 | 0.032 |
| AKAP9 C1367 (UniProt Q99996) | -0.121 | -0.228 | -0.233 | -0.245 |
| ALAS1 C544 (UniProt P13196) | -0.0849 | 0.132 | -0.382 | 0.185 |
| AFF1 C151 (UniProt P51825) | -0.0617 | -0.0748 | 0.273 | -0.0307 |
